# In PubChem BioAssay AID330 (DTP/NCI, 2004):
# The list does not hold the whole screen: its compounds were picked by chemical class. Not every dose and run of a compound is shown. T/C: endpoint of the treated group in % of that of the vehicle group. Where survival is the endpoint, the PubChem record calls one and a half times the control and up active, and a quarter to a half above the control has no call in these data; cut-offs in other NCI protocols can differ. Schedules are NCI's codes, taken here to give the interval after Q, in days (D) or hours (H), and the number of doses after X. Some T/C values are marked as having no survivor count here; that says nothing about deaths at the dose. Some entries were tested several times; their values stand side by side, smallest first.
# System: P388 leukemia ip, CD2F1 mice, survival T/C
# Assay: NCI In Vivo Anticancer Drug Screen. Data for tumor model P388 Leukemia (intraperitoneal) in CD2F1 (CDF1) mice
# Conditions: T/C endpoint: median survival time, higher T/C = longer survival
# [1] = dose: 0.15 mg/kg/injection, schedule: Q01DX009 (ip), vehicle: saline + alcohol
# [2] = dose: 0.31 mg/kg/injection, schedule: Q01DX009 (ip), vehicle: saline + alcohol
# [3] = dose: 0.62 mg/kg/injection, schedule: Q01DX009 (ip), vehicle: saline + alcohol
# [4] = dose: 1.25 mg/kg/injection, schedule: Q01DX009 (ip), vehicle: saline + alcohol
# [5] = dose: 2.5 mg/kg/injection, schedule: Q01DX009 (ip), vehicle: saline + alcohol
compound,measurement,setting,value
CC1=CC2OC3CC4OC(=O)/C=C/C=C/C(=O)OCC/C(CO)=C/C(=O)OCC2(CC1)C4(C)C31CO1 (centres undefined),T/C,"dose: 0.31 mg/kg/injection, schedule: Q04DX002 (ip), vehicle: distilled water + Tween-80 + alcohol",116 % of control [survivor count not shown]
same,T/C,"dose: 0.62 mg/kg/injection, schedule: Q04DX002 (ip), vehicle: distilled water + Tween-80 + alcohol",123 % of control [survivor count not shown]
same,T/C,"dose: 1.25 mg/kg/injection, schedule: Q04DX002 (ip), vehicle: distilled water + Tween-80 + alcohol",125 [survivor count not shown] and 129 % of control [survivor count not shown]
same,T/C,"dose: 2.5 mg/kg/injection, schedule: Q04DX002 (ip), vehicle: distilled water + Tween-80 + alcohol",122 [survivor count not shown] and 129 % of control [survivor count not shown]
same,T/C,"dose: 5.0 mg/kg/injection, schedule: Q04DX002 (ip), vehicle: distilled water + Tween-80 + alcohol",122 % of control [survivor count not shown]
CNC1C2OC3C=C(C)CCC3(COC(C)=O)C(C)(C1O)C21CO1 (centres undefined),T/C,"dose: 2.5 mg/kg/injection, schedule: Q04DX002 (ip), vehicle: water",119 % of control [survivor count not shown]
same,T/C,"dose: 5.0 mg/kg/injection, schedule: Q04DX002 (ip), vehicle: water",126 [survivor count not shown] and 128 % of control [survivor count not shown]
same,T/C,"dose: 10.0 mg/kg/injection, schedule: Q04DX002 (ip), vehicle: water",123 [survivor count not shown] and 135 % of control [survivor count not shown]
same,T/C,"dose: 20.0 mg/kg/injection, schedule: Q04DX002 (ip), vehicle: water",135 [survivor count not shown] and 136 % of control [survivor count not shown]
same,T/C,"dose: 40.0 mg/kg/injection, schedule: Q04DX002 (ip), vehicle: water",144 % of control [survivor count not shown]
CC1=C[C@H]2O[C@@H]3C[C@H]4OC(=O)/C=C\C=C\C(C(C)O)OCC(O)C(C)CC(=O)OC[C@@]2(C[C@@H]1O)[C@]4(C)[C@@]31CO1 (some centres undefined),T/C,"dose: 0.25 mg/kg/injection, schedule: Q01DX009 (ip), vehicle: Klucel (hydroxypropylcellulose) (HPC)",155 % of control [survivor count not shown]
same,T/C,"dose: 0.31 mg/kg/injection, schedule: Q01DX009 (ip), vehicle: Klucel (hydroxypropylcellulose) (HPC)",172 % of control [survivor count not shown]
same,T/C,"dose: 0.5 mg/kg/injection, schedule: Q01DX009 (ip), vehicle: Klucel (hydroxypropylcellulose) (HPC)",129 % of control [survivor count not shown]
same,T/C,"dose: 0.63 mg/kg/injection, schedule: Q01DX009 (ip), vehicle: Klucel (hydroxypropylcellulose) (HPC)",173 % of control [survivor count not shown]
same,T/C,"dose: 1.0 mg/kg/injection, schedule: Q01DX009 (ip), vehicle: Klucel (hydroxypropylcellulose) (HPC)",163 % of control [survivor count not shown]
same,T/C,"dose: 7.5 micrograms/kg/injection, schedule: Q01DX009 (ip), vehicle: saline + alcohol",102 % of control [survivor count not shown]
same,T/C,"dose: 15.0 micrograms/kg/injection, schedule: Q01DX009 (ip), vehicle: saline + alcohol",124 % of control [survivor count not shown]
same,T/C,"dose: 31.0 micrograms/kg/injection, schedule: Q01DX009 (ip), vehicle: saline + alcohol",138 % of control [survivor count not shown]
same,T/C,"dose: 62.0 micrograms/kg/injection, schedule: Q01DX009 (ip), vehicle: saline + alcohol",142 % of control [survivor count not shown]
same,T/C,"dose: 125.0 micrograms/kg/injection, schedule: Q01DX009 (ip), vehicle: saline + alcohol",161 % of control [survivor count not shown]
same,T/C,"dose: 250.0 micrograms/kg/injection, schedule: Q01DX009 (ip), vehicle: saline + alcohol",180 % of control [survivor count not shown]
same,T/C,"dose: 312.0 micrograms/kg/injection, schedule: Q01DX009 (ip), vehicle: Klucel (hydroxypropylcellulose) (HPC)",142 % of control [survivor count not shown]
same,T/C,"dose: 500.0 micrograms/kg/injection, schedule: Q01DX009 (ip), vehicle: saline + alcohol",196 % of control [survivor count not shown]
same,T/C,"dose: 625.0 micrograms/kg/injection, schedule: Q01DX009 (ip), vehicle: Klucel (hydroxypropylcellulose) (HPC)",149 % of control [survivor count not shown]
same,T/C,"dose: 1000.0 micrograms/kg/injection, schedule: Q01DX009 (ip), vehicle: saline + alcohol",214 % of control [survivor count not shown]
CC1=CC2OC3CC4OC(=O)/C=C\C=C/C5OC(OC5C)C(O)/C(C)=C\C(=O)OCC2(CC1)C4(C)C31CO1 (centres undefined),T/C,[1],112 % of control [survivor count not shown]
same,T/C,[2],119 % of control [survivor count not shown]
same,T/C,[3],125 % of control [survivor count not shown]
same,T/C,[4],140 % of control [survivor count not shown]
same,T/C,[5],149 % of control [survivor count not shown]
CC1CCOC(=O)/C=C/C=C/C(=O)OC2CC3OC4C=C(CO)CCC4(COC(=O)C1O)C2(C)C31CO1 (centres undefined),T/C,"dose: 0.25 mg/kg/injection, schedule: Q01DX009 (ip), vehicle: saline + alcohol",158 % of control [survivor count not shown]
same,T/C,"dose: 0.5 mg/kg/injection, schedule: Q01DX009 (ip), vehicle: saline + alcohol",154 % of control [survivor count not shown]
same,T/C,"dose: 1.0 mg/kg/injection, schedule: Q01DX009 (ip), vehicle: saline + alcohol, evaluated on day 30",165 % of control [survivor count not shown]
same,T/C,"dose: 1.0 mg/kg/injection, schedule: Q01DX009 (ip), vehicle: saline + alcohol, evaluated on day 35",190 % of control [survivor count not shown]
same,T/C,"dose: 2.0 mg/kg/injection, schedule: Q01DX009 (ip), vehicle: saline + alcohol, evaluated on day 30",165 % of control [survivor count not shown]
same,T/C,"dose: 2.0 mg/kg/injection, schedule: Q01DX009 (ip), vehicle: saline + alcohol, evaluated on day 35",169 % of control [survivor count not shown]
same,T/C,"dose: 4.0 mg/kg/injection, schedule: Q01DX009 (ip), vehicle: saline + alcohol",252 % of control [survivor count not shown]
C[C@@H](O)[C@H]1/C=C/C=C\C(=O)O[C@@H]2C[C@H]3O[C@@H]4[C@@H]5OC5(C)CCC4(COC(=O)[C@H]4O[C@]4(C)[C@@H](O)CO1)[C@]2(C)[C@]31CO1 (some centres undefined),T/C,[1],193 % of control [survivor count not shown]
same,T/C,[2],148 [survivor count not shown] and 194 % of control [survivor count not shown]
same,T/C,[3],157 [survivor count not shown] and 186 % of control [survivor count not shown]
same,T/C,"dose: 0.63 mg/kg/injection, schedule: Q01DX009 (ip), vehicle: saline + alcohol",145 % of control [survivor count not shown]
same,T/C,[4],"155 [survivor count not shown], 191 [survivor count not shown], 194 % of control [survivor count not shown]"
same,T/C,"dose: 2.5 mg/kg/injection, schedule: Q01DX009 (ip), vehicle: Klucel (hydroxypropylcellulose) (HPC)",169 % of control [survivor count not shown]
same,T/C,[5],"172 [survivor count not shown], 192 [survivor count not shown], 225 % of control [survivor count not shown]"
same,T/C,"dose: 5.0 mg/kg/injection, schedule: Q01DX009 (ip), vehicle: Klucel (hydroxypropylcellulose) (HPC)",182 % of control [survivor count not shown]
same,T/C,"dose: 5.0 mg/kg/injection, schedule: Q01DX009 (ip), vehicle: saline + alcohol","195 [survivor count not shown], 203 [survivor count not shown], 215 % of control [survivor count not shown]"
same,T/C,"dose: 10.0 mg/kg/injection, schedule: Q01DX009 (ip), vehicle: Klucel (hydroxypropylcellulose) (HPC)",102 % of control [survivor count not shown]
same,T/C,"dose: 10.0 mg/kg/injection, schedule: Q01DX009 (ip), vehicle: saline + alcohol",311 % of control [survivor count not shown]
same,T/C,"dose: 20.0 mg/kg/injection, schedule: Q01DX009 (ip), vehicle: saline + alcohol",196 % of control [survivor count not shown]
